Source: the supplement of paper PMC10849652
The other results are listed elsewhere or left out.

By UniProt entry, the sequences of proteins in these tests, tags left out. Where a name states a change or a piece, a line headed by the entry shows the natural chain unless it says otherwise.
UniProt Q6Y7W6: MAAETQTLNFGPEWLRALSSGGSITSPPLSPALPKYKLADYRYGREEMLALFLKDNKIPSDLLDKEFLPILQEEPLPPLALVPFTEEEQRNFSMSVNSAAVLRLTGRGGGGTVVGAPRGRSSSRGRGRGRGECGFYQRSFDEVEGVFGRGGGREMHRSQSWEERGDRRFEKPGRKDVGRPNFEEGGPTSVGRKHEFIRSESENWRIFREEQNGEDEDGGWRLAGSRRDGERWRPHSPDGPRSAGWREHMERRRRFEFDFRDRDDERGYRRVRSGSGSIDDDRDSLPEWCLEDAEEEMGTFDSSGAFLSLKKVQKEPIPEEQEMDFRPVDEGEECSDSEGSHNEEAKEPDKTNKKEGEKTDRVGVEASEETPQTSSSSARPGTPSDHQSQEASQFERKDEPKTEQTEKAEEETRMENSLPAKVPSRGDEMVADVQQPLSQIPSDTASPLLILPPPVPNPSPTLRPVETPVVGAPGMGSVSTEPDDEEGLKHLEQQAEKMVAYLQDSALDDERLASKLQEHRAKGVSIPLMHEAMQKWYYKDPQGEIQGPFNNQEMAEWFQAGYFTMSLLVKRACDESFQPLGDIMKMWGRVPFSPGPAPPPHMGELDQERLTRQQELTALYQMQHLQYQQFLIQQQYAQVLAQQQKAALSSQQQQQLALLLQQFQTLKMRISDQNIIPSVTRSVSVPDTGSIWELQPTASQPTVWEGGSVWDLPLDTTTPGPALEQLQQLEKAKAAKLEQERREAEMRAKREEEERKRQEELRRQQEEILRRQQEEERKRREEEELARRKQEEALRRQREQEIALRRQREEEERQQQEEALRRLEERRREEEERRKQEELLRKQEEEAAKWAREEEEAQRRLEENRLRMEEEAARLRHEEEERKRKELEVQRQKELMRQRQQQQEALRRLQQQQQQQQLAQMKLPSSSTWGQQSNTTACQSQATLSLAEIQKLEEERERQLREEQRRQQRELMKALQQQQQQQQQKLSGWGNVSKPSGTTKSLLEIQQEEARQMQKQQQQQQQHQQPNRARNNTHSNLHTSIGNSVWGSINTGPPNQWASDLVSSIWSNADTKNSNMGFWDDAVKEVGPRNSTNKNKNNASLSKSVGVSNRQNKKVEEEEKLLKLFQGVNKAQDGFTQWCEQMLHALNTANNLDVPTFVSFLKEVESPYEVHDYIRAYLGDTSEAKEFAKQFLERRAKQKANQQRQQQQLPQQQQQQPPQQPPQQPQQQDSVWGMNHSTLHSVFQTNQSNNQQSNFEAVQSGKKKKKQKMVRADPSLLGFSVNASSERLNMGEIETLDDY
UniProt Q8TBA6: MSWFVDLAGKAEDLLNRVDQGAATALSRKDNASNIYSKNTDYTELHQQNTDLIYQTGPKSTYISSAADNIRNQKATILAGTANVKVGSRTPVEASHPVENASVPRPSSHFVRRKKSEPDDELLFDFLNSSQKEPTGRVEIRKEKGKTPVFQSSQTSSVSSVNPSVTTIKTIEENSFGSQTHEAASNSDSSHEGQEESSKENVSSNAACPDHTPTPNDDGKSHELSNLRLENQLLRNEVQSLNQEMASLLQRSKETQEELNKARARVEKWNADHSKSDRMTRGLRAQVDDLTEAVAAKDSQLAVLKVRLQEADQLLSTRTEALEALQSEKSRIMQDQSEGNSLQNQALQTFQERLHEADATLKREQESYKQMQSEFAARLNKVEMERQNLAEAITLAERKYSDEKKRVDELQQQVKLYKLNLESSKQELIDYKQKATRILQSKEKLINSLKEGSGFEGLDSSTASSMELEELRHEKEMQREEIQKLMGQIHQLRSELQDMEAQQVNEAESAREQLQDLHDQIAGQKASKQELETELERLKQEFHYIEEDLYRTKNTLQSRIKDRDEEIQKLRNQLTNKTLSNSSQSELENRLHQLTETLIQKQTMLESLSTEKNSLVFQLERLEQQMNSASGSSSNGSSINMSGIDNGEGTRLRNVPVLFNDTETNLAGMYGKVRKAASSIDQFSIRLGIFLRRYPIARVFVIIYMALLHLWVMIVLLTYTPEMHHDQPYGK
UniProt Q9H4A6: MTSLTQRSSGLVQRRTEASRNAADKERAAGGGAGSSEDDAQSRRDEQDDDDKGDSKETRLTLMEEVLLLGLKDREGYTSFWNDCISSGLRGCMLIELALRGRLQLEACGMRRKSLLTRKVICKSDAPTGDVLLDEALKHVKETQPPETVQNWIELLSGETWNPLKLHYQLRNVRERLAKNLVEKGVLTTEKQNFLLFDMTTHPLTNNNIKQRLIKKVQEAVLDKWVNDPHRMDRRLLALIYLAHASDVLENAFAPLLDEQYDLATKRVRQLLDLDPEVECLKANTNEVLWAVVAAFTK
UniProt Q99795: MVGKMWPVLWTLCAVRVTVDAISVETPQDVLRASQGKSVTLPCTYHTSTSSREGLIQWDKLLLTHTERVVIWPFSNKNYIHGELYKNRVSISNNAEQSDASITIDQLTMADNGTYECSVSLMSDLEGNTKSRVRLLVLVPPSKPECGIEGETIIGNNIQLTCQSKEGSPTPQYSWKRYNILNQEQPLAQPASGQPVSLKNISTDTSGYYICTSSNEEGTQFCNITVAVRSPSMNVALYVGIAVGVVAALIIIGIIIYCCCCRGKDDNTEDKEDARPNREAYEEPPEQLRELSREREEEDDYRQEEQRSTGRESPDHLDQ
UniProt Q9H4A5: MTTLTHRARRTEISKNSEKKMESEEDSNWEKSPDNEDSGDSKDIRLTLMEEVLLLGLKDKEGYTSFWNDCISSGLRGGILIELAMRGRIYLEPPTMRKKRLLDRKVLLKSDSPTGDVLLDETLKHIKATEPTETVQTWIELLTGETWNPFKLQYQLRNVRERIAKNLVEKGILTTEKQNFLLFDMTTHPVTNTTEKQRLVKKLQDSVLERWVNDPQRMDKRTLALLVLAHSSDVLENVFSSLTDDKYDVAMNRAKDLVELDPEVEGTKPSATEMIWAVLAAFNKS
UniProt Q96IJ6: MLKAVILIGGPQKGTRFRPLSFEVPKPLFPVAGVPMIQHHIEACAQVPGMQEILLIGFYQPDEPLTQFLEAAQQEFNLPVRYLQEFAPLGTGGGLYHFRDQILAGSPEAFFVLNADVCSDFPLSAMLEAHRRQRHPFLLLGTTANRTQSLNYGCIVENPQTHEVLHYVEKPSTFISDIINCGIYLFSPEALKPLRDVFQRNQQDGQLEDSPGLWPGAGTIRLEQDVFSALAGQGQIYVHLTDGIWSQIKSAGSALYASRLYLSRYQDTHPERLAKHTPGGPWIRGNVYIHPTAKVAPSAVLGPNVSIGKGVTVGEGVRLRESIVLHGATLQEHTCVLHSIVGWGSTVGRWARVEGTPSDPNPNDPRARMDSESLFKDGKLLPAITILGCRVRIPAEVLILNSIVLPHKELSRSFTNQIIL
UniProt Q9HC38: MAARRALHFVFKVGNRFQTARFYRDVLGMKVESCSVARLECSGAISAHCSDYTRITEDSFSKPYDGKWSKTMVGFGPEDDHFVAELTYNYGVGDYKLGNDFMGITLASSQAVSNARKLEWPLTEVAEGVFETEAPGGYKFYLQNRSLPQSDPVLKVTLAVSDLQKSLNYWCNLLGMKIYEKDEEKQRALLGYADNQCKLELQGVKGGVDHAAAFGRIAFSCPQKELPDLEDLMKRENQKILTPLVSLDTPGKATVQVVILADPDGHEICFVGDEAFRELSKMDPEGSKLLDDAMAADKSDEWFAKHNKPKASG
UniProt Q13227: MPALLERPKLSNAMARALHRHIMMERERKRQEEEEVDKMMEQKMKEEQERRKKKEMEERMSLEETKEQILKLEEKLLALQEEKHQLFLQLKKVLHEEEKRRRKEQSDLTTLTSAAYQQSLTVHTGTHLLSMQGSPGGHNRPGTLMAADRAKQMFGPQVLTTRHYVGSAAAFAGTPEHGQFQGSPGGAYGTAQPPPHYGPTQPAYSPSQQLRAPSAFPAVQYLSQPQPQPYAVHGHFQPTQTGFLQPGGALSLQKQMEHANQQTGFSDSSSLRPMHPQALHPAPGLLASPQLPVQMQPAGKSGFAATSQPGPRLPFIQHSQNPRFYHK
UniProt Q9NS18: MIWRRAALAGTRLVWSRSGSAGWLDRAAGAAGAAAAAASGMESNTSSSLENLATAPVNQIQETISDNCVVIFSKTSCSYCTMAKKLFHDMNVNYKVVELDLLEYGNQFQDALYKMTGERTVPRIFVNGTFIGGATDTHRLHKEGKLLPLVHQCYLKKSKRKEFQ
UniProt P81274: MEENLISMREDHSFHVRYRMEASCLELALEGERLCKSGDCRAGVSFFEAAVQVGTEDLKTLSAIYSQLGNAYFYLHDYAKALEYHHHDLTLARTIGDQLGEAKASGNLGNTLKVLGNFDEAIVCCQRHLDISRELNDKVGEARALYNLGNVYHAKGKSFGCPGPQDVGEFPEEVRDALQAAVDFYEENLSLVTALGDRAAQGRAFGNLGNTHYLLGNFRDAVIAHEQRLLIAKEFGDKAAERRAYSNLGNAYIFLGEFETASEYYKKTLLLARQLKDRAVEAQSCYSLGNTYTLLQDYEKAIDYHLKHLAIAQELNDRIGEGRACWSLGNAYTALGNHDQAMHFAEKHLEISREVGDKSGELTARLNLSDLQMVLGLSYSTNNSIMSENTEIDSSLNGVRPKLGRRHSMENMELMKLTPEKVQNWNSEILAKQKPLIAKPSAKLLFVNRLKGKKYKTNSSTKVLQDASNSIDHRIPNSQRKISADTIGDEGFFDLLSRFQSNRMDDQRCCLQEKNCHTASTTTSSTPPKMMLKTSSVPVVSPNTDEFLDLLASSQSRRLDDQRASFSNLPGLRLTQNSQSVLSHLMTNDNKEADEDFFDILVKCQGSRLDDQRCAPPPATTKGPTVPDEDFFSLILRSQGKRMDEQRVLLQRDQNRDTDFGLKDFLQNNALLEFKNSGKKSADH
UniProt Q9HAV0, whole entry, looked up: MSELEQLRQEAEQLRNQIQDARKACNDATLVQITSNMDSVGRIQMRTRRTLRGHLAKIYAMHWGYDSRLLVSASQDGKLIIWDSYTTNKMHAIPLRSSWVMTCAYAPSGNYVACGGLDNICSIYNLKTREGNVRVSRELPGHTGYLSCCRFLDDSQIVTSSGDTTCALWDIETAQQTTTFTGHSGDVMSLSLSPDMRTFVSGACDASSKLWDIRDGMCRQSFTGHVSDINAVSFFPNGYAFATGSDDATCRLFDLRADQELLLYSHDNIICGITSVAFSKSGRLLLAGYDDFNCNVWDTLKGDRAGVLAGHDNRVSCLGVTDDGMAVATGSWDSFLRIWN
UniProt Q9NZ52: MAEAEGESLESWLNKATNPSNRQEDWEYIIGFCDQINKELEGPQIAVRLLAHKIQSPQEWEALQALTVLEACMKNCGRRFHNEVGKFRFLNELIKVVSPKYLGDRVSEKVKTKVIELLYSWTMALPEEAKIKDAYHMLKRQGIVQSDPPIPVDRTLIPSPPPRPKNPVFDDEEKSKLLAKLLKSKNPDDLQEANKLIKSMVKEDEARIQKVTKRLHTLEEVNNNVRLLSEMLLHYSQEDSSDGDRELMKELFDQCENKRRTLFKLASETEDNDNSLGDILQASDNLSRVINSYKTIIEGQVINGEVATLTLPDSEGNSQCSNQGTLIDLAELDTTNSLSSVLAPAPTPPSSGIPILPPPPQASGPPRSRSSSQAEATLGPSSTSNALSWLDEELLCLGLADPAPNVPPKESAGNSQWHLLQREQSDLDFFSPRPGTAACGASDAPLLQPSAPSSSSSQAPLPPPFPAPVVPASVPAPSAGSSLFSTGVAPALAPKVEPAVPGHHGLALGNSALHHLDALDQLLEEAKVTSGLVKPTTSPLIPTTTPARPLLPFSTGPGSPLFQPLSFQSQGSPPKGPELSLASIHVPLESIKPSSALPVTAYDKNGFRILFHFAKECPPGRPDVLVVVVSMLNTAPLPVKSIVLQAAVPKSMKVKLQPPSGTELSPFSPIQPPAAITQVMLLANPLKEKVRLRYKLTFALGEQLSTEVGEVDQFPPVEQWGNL
UniProt I6L899: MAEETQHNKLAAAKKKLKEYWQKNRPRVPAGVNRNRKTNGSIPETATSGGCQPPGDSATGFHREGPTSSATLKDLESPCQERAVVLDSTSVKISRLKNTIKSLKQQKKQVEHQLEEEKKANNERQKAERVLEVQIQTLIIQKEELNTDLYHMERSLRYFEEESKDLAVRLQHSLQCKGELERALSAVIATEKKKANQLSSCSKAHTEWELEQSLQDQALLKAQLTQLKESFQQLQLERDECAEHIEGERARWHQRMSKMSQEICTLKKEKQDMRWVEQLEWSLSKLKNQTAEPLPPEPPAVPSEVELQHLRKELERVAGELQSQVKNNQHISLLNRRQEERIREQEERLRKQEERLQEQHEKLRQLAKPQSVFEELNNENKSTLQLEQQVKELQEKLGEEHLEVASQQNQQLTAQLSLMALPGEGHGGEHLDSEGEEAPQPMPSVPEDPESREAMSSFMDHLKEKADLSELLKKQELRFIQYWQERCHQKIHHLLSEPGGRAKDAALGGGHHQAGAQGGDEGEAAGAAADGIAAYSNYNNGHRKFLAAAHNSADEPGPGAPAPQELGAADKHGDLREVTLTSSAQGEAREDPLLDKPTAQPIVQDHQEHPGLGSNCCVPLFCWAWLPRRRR

These targets were tested with C1=CC=C(C=C1)[C@H](COC2=CC3=C(C=C2)NC(=O)N3)NC(=O)C4=CC=CN(C4=O)CC5=CC(=C(C=C5)F)F (assay: log2 fold change, soluble protein after heating vs DMSO (PISA); higher = thermal stabilisation; K562 lysate, 10 uM; active = over 0.2 and 3.5 SD of the protein, either way, in both replicates (recomputed)).
In short: (§1)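 K562 pellets were dounce-homogenised in PBS pH 7.4 with 1 mM MgCl2, and the crude extract at 1 mg/mL protein was treated with 10 μM compound for 30 min. Aliquots were heated for 3 min across 48°C-58°C, pooled, and brought to 0.5% NP-40 at 4°C; soluble protein was the supernatant after 21,000xg for 90 min. Soluble protein was quantified by TMTpro 16plex LC-MS/MS with channel sums equalised, and reported as log2 fold change in thermal stability against DMSO controls, with values from duplicates.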

Target	log2 fold change
GIPC3 (UniProt Q8TF64)	inactive: -0.002
GLCE (UniProt O94923)	inactive: -0.176
GIGYF2 (UniProt Q6Y7W6)	inactive: 0.047
GOT1 (UniProt P17174)	inactive: 0.022
GOLGA5 (UniProt Q8TBA6)	inactive: 0.03
GNG5 (UniProt P63218)	inactive: -0.078
GOLPH3 (UniProt Q9H4A6)	inactive: -0.067
GOSR1 (UniProt E9PCW1)	inactive: -0.278
GNAI2 (UniProt P04899)	inactive: 0.011
GOLGA3 (UniProt Q08378)	inactive: 0.016
GPNMB (UniProt Q14956)	inactive: 0.12
GNB1 (UniProt P62873)	inactive: 0.042
GPA33 (UniProt Q99795)	inactive: 0.007
GOLPH3L (UniProt Q9H4A5)	inactive: -0.046
GMPPA (UniProt Q96IJ6)	inactive: -0.004
GLOD4 isoform 2 (UniProt Q9HC38)	inactive: -0.001
GPS2 (UniProt Q13227)	inactive: 0.118
GLRX2 (UniProt Q9NS18)	inactive: -0.069
GPSM2 (UniProt P81274)	inactive: 0.07
GNB4 (UniProt Q9HAV0)	inactive: 0.162
GMPS (UniProt P49915)	inactive: -0.014
GNPTAB (UniProt Q3T906)	inactive: -0.001
GGA3 (UniProt Q9NZ52)	inactive: -0.016
GOLGA8R (UniProt I6L899)	inactive: 0.111

These targets were tested with CC1=C(SC2=C1C(=N[C@H](C3=NN=C(N32)C)CC(=O)N)C4=CC=C(C=C4)Cl)C in the same assay as above.
In short: as §1

Target	log2 fold change
GIPC3 (UniProt Q8TF64)	inactive: 0.042
GLCE (UniProt O94923)	inactive: -0.012
GIGYF2 (UniProt Q6Y7W6)	inactive: -0.054
GOT1 (UniProt P17174)	inactive: -0.027
GOLGA5 (UniProt Q8TBA6)	inactive: -0.011
GNG5 (UniProt P63218)	inactive: 0.049
GOLPH3 (UniProt Q9H4A6)	inactive: 0.018
GOSR1 (UniProt E9PCW1)	inactive: 0.153
GNAI2 (UniProt P04899)	inactive: -0.002
GOLGA3 (UniProt Q08378)	inactive: 0.015
GPNMB (UniProt Q14956)	inactive: 0.127
GNB1 (UniProt P62873)	inactive: -0.051
GPA33 (UniProt Q99795)	inactive: 0.024
GOLPH3L (UniProt Q9H4A5)	inactive: 0.005
GMPPA (UniProt Q96IJ6)	inactive: -0.016
GLOD4 isoform 2 (UniProt Q9HC38)	inactive: 0.025
GPS2 (UniProt Q13227)	inactive: 0
GLRX2 (UniProt Q9NS18)	inactive: 0.006
GPSM2 (UniProt P81274)	inactive: 0.087
GNB4 (UniProt Q9HAV0)	inactive: -0.074
GMPS (UniProt P49915)	inactive: -0.001
GNPTAB (UniProt Q3T906)	inactive: 0.17
GGA3 (UniProt Q9NZ52)	inactive: -0.016
GOLGA8R (UniProt I6L899)	inactive: 0.095

What follows are targets tested with CC1=C2C(=CC=C1)N=C(N(C2=O)C3=CC=CC=C3C)CN4C=NC5=C(N=CN=C54)N in the same assay as above.
In short: as §1

Target	log2 fold change
GLRX (UniProt P35754)	inactive: -0.026
GIGYF2 (UniProt Q6Y7W6)	inactive: 0.011
GOT1 (UniProt P17174)	inactive: -0.009
GORASP1 (UniProt Q9BQQ3)	inactive: -0.049
GOLGA5 (UniProt Q8TBA6)	inactive: 0.013
GNG5 (UniProt P63218)	inactive: 0.016
GOLPH3 (UniProt Q9H4A6)	inactive: 0.022
GNAI2 (UniProt P04899)	inactive: 0.024
GOLGA3 (UniProt Q08378)	inactive: -0.004
GNB1 (UniProt P62873)	inactive: -0.038
GPA33 (UniProt Q99795)	inactive: 0.006
GOLPH3L (UniProt Q9H4A5)	inactive: 0.022
GMPPA (UniProt Q96IJ6)	inactive: -0.049
GLOD4 isoform 2 (UniProt Q9HC38)	inactive: -0.002
GNG12 (UniProt Q9UBI6)	inactive: 0
GPS2 (UniProt Q13227)	inactive: -0.039
GLRX2 (UniProt Q9NS18)	inactive: -0.021
GPSM2 (UniProt P81274)	inactive: 0.054
GLMP (UniProt Q8WWB7)	inactive: -0.027
GMPS (UniProt P49915)	inactive: 0.02
GGA3 (UniProt Q9NZ52)	inactive: -0.004
GPN2 (UniProt Q9H9Y4)	inactive: 0.07
GPSM1 (UniProt Q86YR5)	inactive: -0.155

What follows are targets tested with Cc1sc2c(c1C)C(c1ccc(Cl)cc1)=N[C@@H](CC(=O)OC(C)(C)C)c1nnc(C)n1-2 in the same assay as above.
In short: as §1

Target	log2 fold change
GIPC3 (UniProt Q8TF64)	inactive: 0.013
GLCE (UniProt O94923)	inactive: -0.063
GPATCH2L (UniProt Q9NWQ4)	inactive: -0.105
GIGYF2 (UniProt Q6Y7W6)	inactive: -0.076
GOT1 (UniProt P17174)	inactive: -0.006
GORASP1 (UniProt Q9BQQ3)	inactive: -0.031
GOLGA5 (UniProt Q8TBA6)	inactive: -0.03
GNG5 (UniProt P63218)	inactive: 0.05
GOLPH3 (UniProt Q9H4A6)	inactive: -0.089
GOSR1 (UniProt E9PCW1)	inactive: -0.087
GNAI2 (UniProt P04899)	inactive: 0.034
GOLGA3 (UniProt Q08378)	inactive: -0.026
GPNMB (UniProt Q14956)	inactive: -0.482
GPLD1 (UniProt P80108)	inactive: 0.209
GNB1 (UniProt P62873)	inactive: 0.069
GPA33 (UniProt Q99795)	inactive: -0.248
GOLPH3L (UniProt Q9H4A5)	inactive: -0.009
GMPPA (UniProt Q96IJ6)	inactive: 0.051
GLOD4 isoform 2 (UniProt Q9HC38)	inactive: 0.004
GOLGB1 isoform 4 (UniProt Q14789)	inactive: -0.126
GPS2 (UniProt Q13227)	inactive: 0.068
GLRX2 (UniProt Q9NS18)	inactive: 0.005
GPSM2 (UniProt P81274)	inactive: -0.068
GNB4 (UniProt Q9HAV0)	inactive: 0.031
GLMP (UniProt Q8WWB7)	inactive: 0.187
GMPS (UniProt P49915)	inactive: 0.019
GNPTAB (UniProt Q3T906)	inactive: 0.039
GGA3 (UniProt Q9NZ52)	inactive: 0.009
GPN2 (UniProt Q9H9Y4)	inactive: 0.057
GOLGA8R (UniProt I6L899)	inactive: -0.107
